Out of some 31,000 sequences screened, about 1,400 (4.5%) were called active.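 The calls were made as follows: active = median seed-adjusted z-score above 1 or below -1; inactive = the rest.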 Some of the results follow.
test: Novel Modifiers of Survival Motor Neuron (SMN) Protein: Gene Identification via Genome-wide siRNA Screen; conditions: HEK293T SMN2-luciferase reporter, siRNA knockdown, 72 h; actives lie on both sides;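 also: luminescence tracks full-length SMN protein made from the SMN2 reporter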
In short: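 HEK293T cells stably expressing an SMN2 splicing/cDNA-luciferase reporter were reverse-transfected with a druggable-genome siRNA library and read by luminescence at 72 hours; hits defined by MAD score above 1.0 or below -1.0.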

| Sequence | median seed-adjusted z-score |
| --- | --- |
| UCGCAAAGGUGAACACUCATT against PIN1 | inactive: 0.156 |
| CUACUUAGAUGAUAACCAATT against NUP98 | inactive: 0.168 |
| GAACAACUCUUGUGAGAUUTT against STC2 | inactive: -0.00039 |
| GGAUUUGUUUGAGUACGAATT against CDC2L6 | inactive: -0.31 |
| GGUCUACCAAGAGACAUCATT against MLF2 | inactive: -0.312 |
| GUGAUAAUGUUACAGUGCATT against DMTF1 | inactive: 0.396 |
| CACUUUACUUCGAGAAGUATT against SLC25A15 | inactive: -0.0116 |
| GGCCUUACAGGGACAAGUATT against SFTPD | inactive: 0.289 |
| CAAGUACUUUGCAGAGGCATT against SULT1A2 | inactive: 0.0541 |
| GAACAUCGAUGGGAAGGAATT against ERG | inactive: 0.629 |
| CGAAUAAUGAUAGGACUAATT against SLC2A12 | inactive: -0.373 |
| CAACCAGACGGAGUGCUUUTT against SEMA4G | inactive: 0.188 |
| GAUUUGUACCCACUACUAUTT against ENPP5 | inactive: -0.0499 |
| GGAAGUCGCAGAUCCUGAATT against TSHZ3 | inactive: 0.301 |
| AGAGGAAGUUCGCAGUGGATT against ZNF688 | inactive: -0.475 |
| AGACCGAGGAGUUCAACGATT against KLF4 | inactive: 0.883 |
| GGCUUGAGUUCAUUCAGAATT against PKN3 | inactive: 0.476 |
| CCAAGUCCAAUGCACCUGUTT against KCTD15 | inactive: 0.982 |
| GGACCGGUCACAGAAGGAATT against ZNF446 | inactive: 0.0496 |
| CCCUUUGAGAUGUAAGUUUTT against MPZ | inactive: 0.337 |
| ACUUGACCCAGACCCUUCATT against ZSCAN2 | inactive: -0.428 |
| GCACUGGAGAAGUAUGUGATT against ALOX12B | inactive: 0.0071 |

| Sequence | median seed-adjusted z-score |
| --- | --- |
| CAGCGUGCAUUUUCACUAATT against AKAP11 | inactive: -0.0405 |
| GGCAAGAUCUGUACCGUGATT against HPN | inactive: -0.0237 |
| UGACCUCGAUGAAACCCUUTT against CTDSP2 | inactive: 0.498 |
| CUAGUGAUCUUUUAGAGUUTT against CSGALNACT2 | inactive: 0.236 |
| AGACAGACGAUGCUACUUUTT against GSC | inactive: 0.17 |
| GAUCAAAGCUGGUGACCAUTT against CD300A | inactive: -0.414 |
| CCAUCGAGAGUUCCGGUUUTT against BMP7 | inactive: -0.893 |
| CCAUUGAAAGGAUGAAAGATT against CYP3A43 | inactive: -0.599 |
| GCAACAUCGUGUUCUUGAATT against GAL3ST1 | inactive: 0.263 |
| CAUCCCUAAUCUUCACCAATT against LRP8 | inactive: -0.547 |
| GAACGGCUUCAGUUAUUGATT against MLLT10 | inactive: -0.147 |
| GGCUCAACACGAUGCUUGATT against TGFBI | inactive: 0 |
| CCGACACGCUCUACAAUAATT against BRUNOL6 | inactive: -0.542 |
| CGUUUAACGACUUACAGGATT against RAP1A | inactive: 0.276 |
| CCAACAUCGAGAUGAUUGATT against CTTN | inactive: -0.314 |
| CGUGUACAAGGCUCUAACATT against EPN3 | inactive: 0.184 |
| GAUCUGAGCUUGUACAGAATT against PSMC2 | active: -1.96 |
| GAAGGAAUUUCAUUUGACATT against DHX38 | inactive: -0.723 |
| CCACCAUCCUGUACAACUUTT against TP73 | inactive: 0.353 |
| GGGACAUACUCAUGGACAATT against ZSCAN16 | inactive: -0.274 |
| GUGGGAGUCGGGACAUAUATT against MAFK | active: 1.73 |
| CCUGCACUCCGUGAAUGAATT against QSOX1 | inactive: -0.154 |

Part of the list above in another layout:
CAAGUACUUUGCAGAGGCATT against SULT1A2
  median seed-adjusted z-score: inactive: 0.0541
AGAGGAAGUUCGCAGUGGATT against ZNF688
  median seed-adjusted z-score: inactive: -0.475
CCAACAUCGAGAUGAUUGATT against CTTN
  median seed-adjusted z-score: inactive: -0.314

The results go on:

| Sequence | median seed-adjusted z-score |
| --- | --- |
| GGUAUUACGUUUUGUCAAATT against RAB5B | inactive: 0.299 |
| GAAUUUCCAGAAGUCACUATT against KIF9 | inactive: 0 |
| CCAGAGAUUUAUCAACUUUTT against NPL | inactive: -0.0324 |
| CUACCCACCUGAGACUGCATT against SMYD5 | inactive: -0.217 |
| CGUCAAAAGAGCCCAUAAATT against ENPP5 | inactive: -0.0499 |
| CAAAGAGGGUUGUCCGUGATT against LYZ | inactive: -0.0538 |
| CAGAAAGUGUUGAUAUUAUTT against THUMPD2 | inactive: -0.129 |
| GGACUGCACUACUCCAUGATT against ADAMTS2 | inactive: -0.338 |
| CAAUAUCAAGAAUCUAGUUTT against RBP4 | inactive: 0.0208 |
| GGAUCUUUCUGGAUCGCAUTT against IMPG1 | inactive: -0.252 |
| GGGCUUAUUUUGUGAGAAUTT against ZBTB6 | inactive: -0.225 |
| GACAAUAUCGGAUCGAUAUTT against CEBPZ | inactive: 0.301 |
| UGAUUAUCUUCACACCUAATT against OGDHL | inactive: -0.0878 |
| GGACCUCUCUCUUACCAGUTT against MSX1 | inactive: 0.757 |
| GUGUAUCGGUGAGACCAUUTT against CYP1A1 | inactive: 0.124 |
| GGAAGAAAGCGGGACUUUUTT against PPME1 | inactive: 0.342 |
| GGACUCAGCAGGAUACAAUTT against FOXJ2 | inactive: -0.627 |
| GCUCGUUGGGACCAACUAATT against DYNC2H1 | inactive: -0.613 |
| GCCUUAACCCAGAUGCACATT against GPR128 | inactive: -0.208 |
| AGAGAGAGAUUAUCACAUUTT against MYH7 | inactive: 0.659 |
| CCUAUGAUGUGCUAAGUGATT against DNAJB5 | inactive: -0.444 |
| GCGACUUCAUGAUAGCAUATT against CAMK2D | inactive: 0.0676 |

| Sequence | median seed-adjusted z-score |
| --- | --- |
| AAAUGACCCUGUUACCAACTT against RXRG | inactive: 0.16 |
| UGACAGUGCUACAUCCUUUTT against AICDA | inactive: 0.289 |
| GCAAGAUCCUCAAUGCGCATT against NUP62 | inactive: 0 |
| UGACAUCGUUGGUCCGGAUTT against FBL | inactive: -0.0592 |
| CAGUCCCAAUUUCCACUUUTT against PCDHB2 | inactive: 0 |
| ACAUCUGCAUUGGACAACUTT against ZDHHC24 | inactive: -0.695 |
| GGAAGGGCUUGGUGAUCUATT against EFNB1 | inactive: -0.448 |
| GGCAAGCACUUCUUUCUUUTT against XRCC1 | inactive: 0.0431 |
| GAUUGGAACUUGGUAUUCATT against GALNT2 | inactive: 0.0798 |
| CCACCUCACUUGAAGCUUUTT against VRK3 | inactive: -0.526 |
| CCCUAUGAGUGUCAACAAUTT against ZNF799 | active: -1.02 |
| GGAAUUAUCCCUCAAAGCATT against METT10D | inactive: 0.455 |
| CCUGAGCUAUAAUGAGCUATT against PARP12 | inactive: -0.287 |
| GCAUUAACCCAAUUGCUCUTT against EDNRB | inactive: 0.119 |
| GUACGAGGGUCUCAGAAUATT against BICC1 | inactive: -0.352 |
| GAUUAGAUGUGACUGUACATT against FAM98B | inactive: -0.0162 |
| GGUCCUACCUCGAGCAUAATT against TTLL5 | inactive: 0 |
| GGCACUUAAGGUUCGCUAUTT against PPP4C | active: 1.15 |
| GCAGUAGACUGAGCAGCAATT against TMTC4 | active: -1.16 |
| GGUUGUUGCUAAAGACAUATT against HSDL1 | inactive: 0.0547 |
| CAUCCAGCCCUUAUACAAATT against RBM24 | inactive: 0.0471 |
| AGAGCAACGUGAAAGUGCATT against FOXRED1 | inactive: 0.447 |

Single values from the results shown.
In median seed-adjusted z-score, GCAGUAGACUGAGCAGCAATT against TMTC4 reads active: -1.16
In median seed-adjusted z-score, GGCACUUAAGGUUCGCUAUTT against PPP4C reads active: 1.15
In median seed-adjusted z-score, GGAAGGGCUUGGUGAUCUATT against EFNB1 reads inactive: -0.448
In median seed-adjusted z-score, CAUCCAGCCCUUAUACAAATT against RBM24 reads inactive: 0.0471

(further entries)

| Sequence | median seed-adjusted z-score |
| --- | --- |
| CACUUCAUAUCUCCUAAUATT against PSMB7 | inactive: 0.131 |
| GGACGGAUCUGCUCAGAAATT against LSM4 | inactive: -0.679 |
| CUUCAGUACCUUAUCAUUATT against ST6GALNAC5 | inactive: -0.0321 |
| UCACUGUGCUGAUCGGGAATT against TAZ | inactive: 0.0549 |
| CAACCGCACUCGGUAUGAATT against PROCR | inactive: -0.476 |
| GGGCAGACCUCAACACCAATT against TEAD4 | inactive: 0.0908 |
| GGAACAUCUUUGUACCUAUTT against NARG1 | active: -1.02 |
| UCCAAGUCCUGGACUAUGATT against SYT7 | inactive: -0.762 |
| CAAAGUAUCUGGAGAACCATT against KIF2C | inactive: 0.0122 |
| GCAGAAAACGGUGUAUAAATT against USP2 | inactive: -0.0321 |
| CCAUAGCCGUCUACUCUUUTT against BEST4 | inactive: -0.207 |
| ACAUACUCCCUGAAGCUGATT against GBP1 | inactive: -0.232 |
| GCUCCUUAGCUGCUGAUAATT against HSD17B4 | inactive: 0 |
| GAUCCAAGCUAAUAUGAGATT against TGM5 | inactive: 0.0181 |
| GUGUCCGAGUGGUGAAUCATT against NVL | inactive: 0.701 |
| GCACCACCCGUUGAAGUCATT against DNAJB13 | inactive: 0.092 |
| GCUCCAACCUUAUUACCCATT against ZNF629 | inactive: 0.0602 |
| GGGACUUCAUGUUCGAGCATT against DNAI2 | inactive: 0.12 |
| GGAAUUCCGUUACGGCCUATT against ADIPOR1 | inactive: 0 |
